Data as given in paper PMC11077054.

Experiments:
[1] = test system: CmoDREB2A-His; assay: EMSA; details: EMSA gel in Tris-borate EDTA, 100 V, 60 min, 4 C, binding buffer, salt and pH not stated, recombinant protein, protein details: His (pET28a), label: 6-FAM
[2] = test system: CmoNAC1-GST; assay: EMSA; details: EMSA gel in Tris-borate EDTA, 100 V, 60 min, 4 C; binding buffer, salt and pH not stated; recombinant protein; protein details: GST (pGEX-4T-2); label: 6-FAM

Sequence | binding result [1] | also measured
ATGCCGACGGTGATTACGACAT (double strand) [CmoHAK5;1 promoter DRE probe] | binds | 
ATGCCGACGTCAGTCTCTTCTT (double strand) [CmoHAK5;2 promoter DRE probe] | binds | 
TACGTATATATTTCGCAACTTT (double strand) [CmoDREB2A promoter NACbs probe] |  | binding result [2]: binds
TGGCCGACTTTGCCCGTGATCT (double strand) [CmoNAC1 promoter DRE probe] |  | binding result ([1]; unlabeled probe decreased the shift): binds

For at least one entry, the source does not settle the construct or the ends of the probe.
